Measured values as given in PubChem BioAssay AID1487 (National Center for Advancing Translational Sciences (NCATS), 2009).
This is one part of the list. Further columns of the screen follow, without active or inactive calls. Compounds called inactive in the main read-out are mostly missing here. The note in brackets gives the kind of curve behind each potency; many fits are weak.

Test: qHTS Assay for Modulators of Lamin A Splicing
Settings: HeLa LMNA splicing GFP/RFP minigene ratio, 48 h
In short: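 S3 HeLa stable clones carrying a lamin A-EGFP splicing minigene plus DsRed2 were seeded at 600 cells/well in Opti-MEM with 2% FBS, pin-dosed and incubated 48 h at 37°C. Acumen cytometry (488 nm) gave the GFP/RFP total-intensity ratio.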

[1] = measured here: RFP viability control channel
[2] = measured here: GFP splicing reporter channel

SMILES: CC(=O)c1ccc(N2CCN(C(=O)C3CCN(S(=O)(=O)Cc4ccccc4)CC3)CC2)cc1
- AC50 [1]: 14.1 µM [rising, partial curve]

SMILES: Cc1ccc(CN2CCc3c(OCC(=O)Nc4cc(C)ccc4C)cccc3C2=O)cc1
- AC50 [1]: 11.2 µM [rising, partial curve]

SMILES: CCOC(=O)c1c(S(=O)(=O)N2CCC(C(=O)NCc3cccc(OC)c3)CC2)c(C)n(C)c1C
- AC50 [1]: 5.01 µM [falling, single point]

SMILES: CC#CCN1c2ccccc2[C@]23C[C@@H](C(=O)OC)N(S(=O)(=O)c4ccc(C(F)(F)F)cc4)C2=NC(C(=O)OC)=C(C(=O)OC)[C@H]13
- AC50 [2]: 0.0316 µM [rising, full curve, poor fit]
- AC50 [1]: 3.16 µM [rising, single point]

SMILES: Cc1ccc(-n2nnnc2SCC(=O)Nc2ccccc2N2CCCCC2)cc1C
- AC50 [2]: 0.891 µM [rising, full curve, poor fit]
- AC50 [1]: 12.6 µM [rising, partial curve]

SMILES: CCc1ccc(-c2cc(C(=O)NN3CCOCC3)c3ccccc3n2)cc1
- AC50 [1]: 2.82 µM [rising, full curve, poor fit]

SMILES: Cc1ccc(OCC(=O)N/N=C\c2c(C)[nH]n(-c3ccccc3)c2=O)c([N+](=O)[O-])c1
- AC50 [1]: 7.94 µM [rising, partial curve, poor fit]

SMILES: COc1ccc(C(=O)c2cc(C(C)=O)c(Nc3ccccc3)s2)cc1
- AC50 [1]: 10 µM [rising, partial curve, poor fit]

SMILES: CCN1CCc2c(sc(NC(=O)c3ccc(S(=O)(=O)N4CCCC(C)C4)cc3)c2C(=O)OC)C1 (centres undefined)
- AC50 [2]: 0.158 µM [falling, full curve, poor fit]
- AC50 [1]: 11.2 µM [falling, partial curve, poor fit]

SMILES: CC1CC(C)CN(CC(=O)N2CCCc3c2c(=O)oc2ccc(OCc4ccccc4)cc32)C1 (centres undefined)
- AC50 [1]: 31.6 µM [rising, single point]

SMILES: CC1CCCCC1NC(=O)c1ccc2c(c1)[nH]c(=O)n2C1CCCC1 (centres undefined)
- AC50 [1]: 35.5 µM [rising, single point]

SMILES: O=S1(=O)c2ccccc2N(Cc2ccccc2F)c2ccccc21
- AC50 [1]: 0.0891 µM [rising, full curve, poor fit]

SMILES: CC(C)(C)c1ccc(CN2N=Nc3ccccc3S2(=O)=O)cc1
- AC50 [2]: 10 µM [falling, partial curve]
- AC50 [1]: 10 µM [falling, partial curve]

SMILES: O=C(Cc1ccc(Cl)cc1)Nc1ccncc1
- AC50 [2]: 11.2 µM [falling, partial curve, poor fit]

SMILES: O=C(/C=C/c1cccc([N+](=O)[O-])c1)NCCSCc1ccco1
- AC50 [2]: 8.91 µM [rising, partial curve, poor fit]

SMILES: COc1ccc(CCNC(=O)c2ccc(-n3c(C)cc4c3CCC(C)C4)cc2)cc1OC (centres undefined)
- AC50 [1]: 10 µM [falling, partial curve]

SMILES: C=CCS(=O)(=O)c1nc2ccccc2s1
- AC50 [2]: 7.08 µM [falling, full curve]
- AC50 [1]: 10 µM [falling, partial curve]

SMILES: Cc1ccc(S(=O)(=O)N/N=C\c2cccnc2)cc1
- AC50 [2]: 17.8 µM [falling, single point]

SMILES: CCN(CC(=O)NCc1cccs1)C(=O)c1ccccc1F
- AC50 [1]: 0.0178 µM [falling, full curve, poor fit]

SMILES: CCCCN(CCCC)/C(N)=N/c1nc(C)cc(C)n1
- AC50 [2]: 0.447 µM [falling, full curve, poor fit]

SMILES: COC(=O)C1=C(C)N(CCc2cc(OC)c(OC)c(OC)c2)C(=O)N[C@H]1c1ccc(Br)cc1
- AC50 [2]: 35.5 µM [rising, single point]
- AC50 [1]: 35.5 µM [rising, single point]

SMILES: Cc1ccc(NC(=O)CN(C)S(=O)(=O)c2cccc3nsnc23)cc1Cl
- AC50 [1]: 20 µM [rising, partial curve, poor fit]

SMILES: CCOc1cc(/C=C(\C#N)C(=O)NCc2cccnc2)ccc1O
- AC50 [2]: 2 µM [falling, partial curve]
- AC50 [1]: 1.12 µM [falling, full curve, poor fit]

SMILES: CC(=O)Nc1ccc(N2S(=O)(=O)c3ccccc3S2(=O)=O)cc1
- AC50 [1]: 14.1 µM [rising, single point]

SMILES: O=C(c1cccc(S(=O)(=O)N2CCCC2)c1)c1nnc(-c2ccncc2)o1
- AC50 [2]: 0.0282 µM [rising, partial curve, poor fit]
- AC50 [1]: 0.0398 µM [rising, full curve, poor fit]

SMILES: C=CCn1c(SC(C)C(=O)NCc2ccc3c(c2)OCO3)nnc1C1CCCCC1 (centres undefined)
- AC50 [2]: 12.6 µM [rising, single point]

SMILES: NC(=O)N1c2ccccc2C=Cc2ccccc21
- AC50 [2]: 17.8 µM [falling, partial curve, poor fit]
- AC50 [1]: 0.00398 µM [falling, full curve, poor fit]

SMILES: Cc1nn(-c2ccccc2)c(Cl)c1/C=C/C(=O)c1ccc(O)cc1
- AC50 [2]: 35.5 µM [falling, single point]
- AC50 [1]: 35.5 µM [falling, single point]

SMILES: Cc1ccc2cccnc2c1N
- AC50 [2]: 0.0224 µM [falling, full curve, poor fit]
- AC50 [1]: 31.6 µM [falling, partial curve, poor fit]

SMILES: COc1ccc(N2CCN(C(=O)CSc3ncccc3-c3nc4ccccc4[nH]3)CC2)cc1
- AC50 [2]: 14.1 µM [rising, single point]
- AC50 [1]: 31.6 µM [rising, single point]

SMILES: N/C(Cc1cccc2ccccc12)=N\OC(=O)Cc1cccs1
- AC50 [2]: 14.1 µM [rising, single point]
- AC50 [1]: 31.6 µM [rising, single point]

SMILES: Cc1ccc(-c2ccc(=O)[nH]n2)cc1
- AC50 [2]: 15.8 µM [falling, partial curve]
- AC50 [1]: 22.4 µM [falling, partial curve]

SMILES: Cc1ccc2nc(-c3ccc(NS(C)(=O)=O)cc3)cc(-c3ccccc3)c2c1
- AC50 [2]: 35.5 µM [falling, single point]
- AC50 [1]: 25.1 µM [falling, single point]

SMILES: Cc1ccc(Sc2ccncc2S(N)(=O)=O)cc1
- AC50 [2]: 7.94 µM [rising, partial curve, poor fit]
- AC50 [1]: 14.1 µM [rising, partial curve, poor fit]

SMILES: COc1cccc(-c2cc(C(=O)NCCCn3ccnc3)no2)c1
- AC50 [1]: 17.8 µM [rising, single point]

SMILES: COc1cc(/C=C/C(=O)N2C(=O)c3cccc(N)c3C2=O)cc(OC)c1OC
- AC50 [2]: 3.16 µM [falling, single point]

SMILES: CCN(CC)S(=O)(=O)c1cc(C(=O)Nc2ccc(Cl)cn2)ccc1C
- AC50 [1]: 35.5 µM [rising, single point]

SMILES: O=C1CSC2(C(=O)N(Cc3cccc(C(F)(F)F)c3)c3ccccc32)N1c1ccc(F)c(F)c1 (centres undefined)
- AC50 [1]: 0.178 µM [falling, full curve, poor fit]

SMILES: Cc1ccc(CNC(=O)Cn2ccn(-c3cccc(Cl)c3)c(=O)c2=O)cc1
- AC50 [1]: 1.26 µM [rising, full curve, poor fit]

SMILES: O=C1Nc2ccccc2/C1=N/c1sc2c(c1C(=O)NCCc1ccccc1)CCCC2
- AC50 [2]: 11.2 µM [falling, partial curve, poor fit]

SMILES: CCc1ccccc1NC(=O)CN(C)C(=O)CSc1nnc(Nc2cccc(C)c2C)s1
- AC50 [2]: 35.5 µM [rising, single point]
- AC50 [1]: 25.1 µM [rising, single point]

SMILES: COc1ccc(-n2c(C)cc(C(=O)CN3C(=O)C(=O)N(Cc4ccccc4)C3=O)c2C)cc1
- AC50 [2]: 0.0141 µM [rising, full curve, poor fit]
- AC50 [1]: 14.1 µM [rising, partial curve]

SMILES: COc1c(Br)cc(Br)cc1/C=N/NC(=O)c1ccncc1
- AC50 [2]: 0.02 µM [rising, full curve, poor fit]

SMILES: Cc1c(C(=O)N/N=C/c2ccccc2)[nH]c2ccc(Cl)cc12
- AC50 [1]: 3.55 µM [rising, full curve]

SMILES: CCOc1cccc(NCc2cc3c(C(C)(C)C)nn(-c4ccccc4)c3[nH]c2=O)c1
- AC50 [2]: 14.1 µM [rising, single point]
- AC50 [1]: 14.1 µM [rising, single point]

SMILES: CCCCSCCCNC(=O)CS(=O)Cc1nc(-c2cccc(C)c2)oc1C (centres undefined)
- AC50 [1]: 35.5 µM [rising, single point]

SMILES: Cc1ccsc1C(=O)Nc1nnc(-c2ccco2)o1
- AC50 [1]: 8.91 µM [rising, partial curve, poor fit]

SMILES: COC(=O)c1sccc1NC(=O)c1c(-c2ccccc2)noc1C
- AC50 [2]: 35.5 µM [rising, single point]
- AC50 [1]: 35.5 µM [rising, single point]

SMILES: O=C1C2C3C=CC(C3)C2C(=O)N1c1ccc(-c2nc3ccccc3c(=O)o2)cc1 (centres undefined)
- AC50 [2]: 2.24 µM [falling, full curve, poor fit]

SMILES: COc1cc(/C=C(\C#N)c2nnc(N3CCOCC3)n2-c2ccccc2)ccc1O
- AC50 [1]: 17.8 µM [rising, single point]

SMILES: S=C(Nc1ccc2nsnc2c1)NC1CCCCC1
- AC50 [1]: 35.5 µM [rising, single point]

SMILES: O=C(Nc1ccc(Cl)cc1)NC1CCCC1Cc1ccco1 (centres undefined)
- AC50 [1]: 35.5 µM [rising, single point]

SMILES: Cn1c(=O)c2c(nc(N/N=C/c3cccs3)n2Cc2ccccc2)n(C)c1=O
- AC50 [1]: 0.00447 µM [rising, full curve, poor fit]

SMILES: CCOC(=O)CSc1nc2cc3c(cc2cc1C)OCO3
- AC50 [1]: 0.0398 µM [falling, full curve]
